This is an account of results in article PMC12183919.

Results are given in words; binding and its absence hold for the method and conditions named. Binding seen in cells or lysates may run through a third protein. Binding can be weak; no strength is given. Sequences can lack the tags named with a protein.

This assay deals with T1, synaptotagmin 13 (SYT13), endogenous in human brain (human (endogenous in brain tissue)) (UniProt Q7L8C5).
T1 sequence: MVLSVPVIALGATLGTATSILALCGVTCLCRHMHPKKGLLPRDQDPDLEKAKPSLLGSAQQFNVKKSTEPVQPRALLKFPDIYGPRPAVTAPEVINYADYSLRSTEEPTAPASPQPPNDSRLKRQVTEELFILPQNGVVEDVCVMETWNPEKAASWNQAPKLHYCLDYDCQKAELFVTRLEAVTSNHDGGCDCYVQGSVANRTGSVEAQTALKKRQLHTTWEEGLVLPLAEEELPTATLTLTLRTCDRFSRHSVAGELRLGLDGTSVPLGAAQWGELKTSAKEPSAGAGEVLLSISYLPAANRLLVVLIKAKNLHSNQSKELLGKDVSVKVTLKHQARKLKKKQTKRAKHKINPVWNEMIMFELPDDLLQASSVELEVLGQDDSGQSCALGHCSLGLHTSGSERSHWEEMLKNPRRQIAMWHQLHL
Kind of assay: co-IP; human temporal lobe homogenates (DLB, MSA, controls); IP with anti-SYT13 antibody (MBS9606007), immunoblot. (In general: A western blot detects proteins with antibodies after separation by electrophoresis.)

With Syntaxin, endogenous in human brain, the binding entry is on record as “binds”.
